No constants are given. Whether binding was seen depends on the method and setting. Some binding calls cover weakened binding; strength is not graded here.
Legend:
Assay in all cases: SPR (Biacore), 25 C and 37 C
[1] = target: Monomeric human CD48-mmH (human)
[2] = target: Monomeric monkey CD48-mmH (monkey)
[3] = target: Dimeric monkey CD48-mFc (monkey)
[4] = target: Dimeric human CD48-mFc (human)

Measured: binding

B1: H4H1713N (antibody, human IgG4, V domains shown)
VH: QVQLVQSGAEVKKPGASVKVSCKASGHTFTNYYIHWVRQAPGQGLEWMGITNPNDGNTRYAQKFQGRISMTWDTSTSTVFMELSSLKSEDTAVYYCAGLRYWFFDLWGRGTPVTVSS
VL: DIQMTQSPSSVSASVGDRVTITCRASQDISSWLAWYQQKPGKAPNLLIFAASSLQSGVPSRFSGSGSGTDFTLTISSLQPEDFGTYYCQQTDNFPRTFGQGTKVEIN
binds: all assays above

B2: H4H1763N (antibody, human IgG4, V domains shown)
VH: QIQLVQSGAEMKRPGTSVKVSCKASGYTFTSYGINWVRQAPGQGLEWMGWISAYNGDTNYAQKLQGRVTMTTDTSTTTAYMEVRSLRSDDTAVYYCARFLTGTKDYYYGMDVWGQGTTVTVSS
VL: DIQMTQSPSSLSASVGDRVTITCQASQDISNFLNWYQQKPGKAPDLLINDASILETGVPSRFSGSGSGTDFTLTINNLQPEDIATYYCQQYDNLPLTFGGGTKVEIK
binds: [1] | [2] | [3]

B3: H4H1707N (antibody, human IgG4, V domains shown)
VH: EGQLLESGGGLAQPGGSLRLSCAASGITFGRYAMSWVRQAPGKGLEWVSLISGSGGSTYHADSVKGRFTISRDNSKNTLYLQMNSLRAEDTAVYYCAIYNNYNWFDPWGQGTLVTVSS
VL: EIVLTQSPGTLSLSPGERATLSCRASQSVSSNYLAWYQQKPGQAPRLLIYDASSRATDIPDRFSGSGSGTDFTLTISRLEPEDFAVYYCQQYGSSPRTFGQGTKVEIK
binds: all assays above

— patent US20130230533A1
